Reference: article PMC6473003
Results are given in words; binding and its absence hold for the method and conditions named. For some assays here: In cells and extracts the contact can be indirect. Some entries that bind do so weakly or less than the wild type. For some assays here: Sequences can lack the tags named with a protein.

Amino acid sequences for entries named in this document (tags omitted).
UniProt P03372: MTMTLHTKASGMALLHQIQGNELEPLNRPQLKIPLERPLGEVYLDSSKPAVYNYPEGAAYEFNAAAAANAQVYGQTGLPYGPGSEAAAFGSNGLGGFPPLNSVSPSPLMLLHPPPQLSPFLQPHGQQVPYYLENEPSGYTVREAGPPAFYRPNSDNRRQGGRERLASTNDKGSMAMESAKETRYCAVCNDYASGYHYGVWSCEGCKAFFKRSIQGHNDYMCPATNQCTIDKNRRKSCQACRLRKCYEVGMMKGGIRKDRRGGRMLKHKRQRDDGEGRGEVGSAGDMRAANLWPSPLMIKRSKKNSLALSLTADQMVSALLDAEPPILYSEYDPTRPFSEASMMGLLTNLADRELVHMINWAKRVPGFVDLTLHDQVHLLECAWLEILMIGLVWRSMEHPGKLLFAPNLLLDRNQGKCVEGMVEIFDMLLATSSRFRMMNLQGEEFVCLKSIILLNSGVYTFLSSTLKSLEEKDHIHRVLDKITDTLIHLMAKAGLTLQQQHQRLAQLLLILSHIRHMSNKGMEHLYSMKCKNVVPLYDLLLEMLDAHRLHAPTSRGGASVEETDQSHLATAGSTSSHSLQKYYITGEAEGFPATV

Assays:
[1] = biological target: T1, TRIM56 (endogenous, MCF-7 cells) (human (endogenous in MCF-7)) (UniProt Q9BRZ2); test: co-IP; cytoplasmic and nuclear fractions (subcellular protein fractionation kit), IP by TRIM56 antibody in both, ER alpha antibody for detection
T1 sequence: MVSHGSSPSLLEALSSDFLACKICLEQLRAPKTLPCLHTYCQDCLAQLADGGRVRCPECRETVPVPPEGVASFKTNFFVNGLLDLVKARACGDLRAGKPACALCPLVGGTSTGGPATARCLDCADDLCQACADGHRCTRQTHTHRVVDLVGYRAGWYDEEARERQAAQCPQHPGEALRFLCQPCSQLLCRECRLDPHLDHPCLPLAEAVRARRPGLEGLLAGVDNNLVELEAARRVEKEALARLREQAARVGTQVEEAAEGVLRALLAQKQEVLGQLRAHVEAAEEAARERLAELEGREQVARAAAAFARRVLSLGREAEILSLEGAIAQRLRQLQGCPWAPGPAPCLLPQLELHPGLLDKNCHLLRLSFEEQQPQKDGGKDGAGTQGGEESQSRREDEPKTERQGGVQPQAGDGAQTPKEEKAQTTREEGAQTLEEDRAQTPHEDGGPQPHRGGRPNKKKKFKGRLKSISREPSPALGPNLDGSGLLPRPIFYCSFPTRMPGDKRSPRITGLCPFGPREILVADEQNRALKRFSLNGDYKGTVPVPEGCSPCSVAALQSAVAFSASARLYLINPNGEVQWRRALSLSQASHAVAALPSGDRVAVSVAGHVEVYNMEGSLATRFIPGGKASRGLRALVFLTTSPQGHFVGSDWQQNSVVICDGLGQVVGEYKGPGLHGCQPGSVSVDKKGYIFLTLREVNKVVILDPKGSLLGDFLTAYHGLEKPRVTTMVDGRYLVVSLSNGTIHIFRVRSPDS

GST-TRIM56 = biological target: T2, GST-TRIM56 (UniProt Q9BRZ2); test: pull-down; ER alpha recombinant protein incubated with GST-TRIM56 or GST protein, 4 °C, 30 min; resin washed with PBS with 30 mM imidazole and PBS with 0.01% Triton X-100; eluted with 250 mM imidazole; ER alpha detected by western blot; both purified
T2 sequence: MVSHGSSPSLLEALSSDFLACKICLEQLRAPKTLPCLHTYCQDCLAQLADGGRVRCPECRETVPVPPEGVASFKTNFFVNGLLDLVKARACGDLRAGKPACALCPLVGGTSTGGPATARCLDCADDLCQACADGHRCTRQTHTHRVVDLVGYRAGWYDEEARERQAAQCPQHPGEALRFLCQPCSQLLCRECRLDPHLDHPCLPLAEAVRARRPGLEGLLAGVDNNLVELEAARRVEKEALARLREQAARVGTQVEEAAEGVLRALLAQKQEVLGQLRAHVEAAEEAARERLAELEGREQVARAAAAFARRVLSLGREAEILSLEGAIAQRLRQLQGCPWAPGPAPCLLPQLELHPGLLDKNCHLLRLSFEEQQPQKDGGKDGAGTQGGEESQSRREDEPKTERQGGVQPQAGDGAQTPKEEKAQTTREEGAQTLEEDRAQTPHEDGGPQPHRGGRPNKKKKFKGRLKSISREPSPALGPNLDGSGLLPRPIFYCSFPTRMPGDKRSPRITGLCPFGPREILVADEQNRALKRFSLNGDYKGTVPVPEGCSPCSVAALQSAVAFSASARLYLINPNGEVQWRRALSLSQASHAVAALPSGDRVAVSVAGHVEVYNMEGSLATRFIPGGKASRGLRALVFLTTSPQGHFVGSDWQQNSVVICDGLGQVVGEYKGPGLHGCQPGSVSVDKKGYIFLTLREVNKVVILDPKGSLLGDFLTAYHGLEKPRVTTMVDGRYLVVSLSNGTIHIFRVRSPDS

Myc-TRIM56 = biological target: T3, Myc-TRIM56 (UniProt Q9BRZ2); test: co-IP; HEK293 cells transfected with Myc-TRIM56 and HA-ER alpha full length or mutants, NP-40 lysis buffer after 24 h, IP with Myc antibody, blot with HA antibody
T3 sequence: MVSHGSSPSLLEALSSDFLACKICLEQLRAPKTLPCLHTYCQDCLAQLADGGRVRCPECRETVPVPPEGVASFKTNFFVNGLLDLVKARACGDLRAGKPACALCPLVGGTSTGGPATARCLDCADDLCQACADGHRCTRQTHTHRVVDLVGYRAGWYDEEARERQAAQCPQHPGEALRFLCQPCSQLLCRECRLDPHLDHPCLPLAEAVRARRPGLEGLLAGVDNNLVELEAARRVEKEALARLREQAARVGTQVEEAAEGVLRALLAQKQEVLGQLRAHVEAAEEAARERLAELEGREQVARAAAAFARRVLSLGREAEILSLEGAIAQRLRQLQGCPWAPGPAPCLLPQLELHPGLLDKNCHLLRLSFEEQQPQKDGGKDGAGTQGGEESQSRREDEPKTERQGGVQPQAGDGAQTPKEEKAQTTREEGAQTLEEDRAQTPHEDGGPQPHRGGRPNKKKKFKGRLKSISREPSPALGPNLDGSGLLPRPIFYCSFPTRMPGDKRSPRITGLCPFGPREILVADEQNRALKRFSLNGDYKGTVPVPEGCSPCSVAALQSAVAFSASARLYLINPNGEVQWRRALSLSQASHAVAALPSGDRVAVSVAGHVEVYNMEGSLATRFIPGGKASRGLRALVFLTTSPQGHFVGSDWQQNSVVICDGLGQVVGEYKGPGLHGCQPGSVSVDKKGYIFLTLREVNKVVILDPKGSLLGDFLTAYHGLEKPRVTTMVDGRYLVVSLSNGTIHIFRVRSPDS

[2] = biological target: ER alpha (endogenous, MCF-7 cells) (human (endogenous in MCF-7)) (UniProt P03372); test: co-IP; endogenous proteins, MCF-7 total lysate (RIPA lysis buffer), precleared with rabbit IgG, immunoprecipitated with ER alpha antibody (D8H8) overnight, blot with anti-TRIM56; rabbit IgG as negative control
[3] = biological target: HA-ER alpha full length (human) (UniProt P03372); test: co-IP; HEK293 cells transfected with HA-ER alpha and GFP-TRIM56 full length or mutants, NP-40 lysis buffer after 24 h, IP with HA antibody, blot with GFP antibody

ER alpha (endogenous, MCF-7 cells) (from UniProt P03372 1-595)
binding [1]: binds

ERα recombinant protein (Abcam Ab82606) (from UniProt P03372 1-595)
binding (GST-TRIM56): binds

HA-ER alpha full length (from UniProt P03372 1-595)
binding (Myc-TRIM56): binds

B1: TRIM56 (endogenous, MCF-7 cells) (protein, UniProt Q9BRZ2 1-755)
chain: MVSHGSSPSLLEALSSDFLACKICLEQLRAPKTLPCLHTYCQDCLAQLADGGRVRCPECRETVPVPPEGVASFKTNFFVNGLLDLVKARACGDLRAGKPACALCPLVGGTSTGGPATARCLDCADDLCQACADGHRCTRQTHTHRVVDLVGYRAGWYDEEARERQAAQCPQHPGEALRFLCQPCSQLLCRECRLDPHLDHPCLPLAEAVRARRPGLEGLLAGVDNNLVELEAARRVEKEALARLREQAARVGTQVEEAAEGVLRALLAQKQEVLGQLRAHVEAAEEAARERLAELEGREQVARAAAAFARRVLSLGREAEILSLEGAIAQRLRQLQGCPWAPGPAPCLLPQLELHPGLLDKNCHLLRLSFEEQQPQKDGGKDGAGTQGGEESQSRREDEPKTERQGGVQPQAGDGAQTPKEEKAQTTREEGAQTLEEDRAQTPHEDGGPQPHRGGRPNKKKKFKGRLKSISREPSPALGPNLDGSGLLPRPIFYCSFPTRMPGDKRSPRITGLCPFGPREILVADEQNRALKRFSLNGDYKGTVPVPEGCSPCSVAALQSAVAFSASARLYLINPNGEVQWRRALSLSQASHAVAALPSGDRVAVSVAGHVEVYNMEGSLATRFIPGGKASRGLRALVFLTTSPQGHFVGSDWQQNSVVICDGLGQVVGEYKGPGLHGCQPGSVSVDKKGYIFLTLREVNKVVILDPKGSLLGDFLTAYHGLEKPRVTTMVDGRYLVVSLSNGTIHIFRVRSPDS
binding [2]: binds

B2: GFP-TRIM56 full length (protein, UniProt Q9BRZ2 1-755)
chain: MVSHGSSPSLLEALSSDFLACKICLEQLRAPKTLPCLHTYCQDCLAQLADGGRVRCPECRETVPVPPEGVASFKTNFFVNGLLDLVKARACGDLRAGKPACALCPLVGGTSTGGPATARCLDCADDLCQACADGHRCTRQTHTHRVVDLVGYRAGWYDEEARERQAAQCPQHPGEALRFLCQPCSQLLCRECRLDPHLDHPCLPLAEAVRARRPGLEGLLAGVDNNLVELEAARRVEKEALARLREQAARVGTQVEEAAEGVLRALLAQKQEVLGQLRAHVEAAEEAARERLAELEGREQVARAAAAFARRVLSLGREAEILSLEGAIAQRLRQLQGCPWAPGPAPCLLPQLELHPGLLDKNCHLLRLSFEEQQPQKDGGKDGAGTQGGEESQSRREDEPKTERQGGVQPQAGDGAQTPKEEKAQTTREEGAQTLEEDRAQTPHEDGGPQPHRGGRPNKKKKFKGRLKSISREPSPALGPNLDGSGLLPRPIFYCSFPTRMPGDKRSPRITGLCPFGPREILVADEQNRALKRFSLNGDYKGTVPVPEGCSPCSVAALQSAVAFSASARLYLINPNGEVQWRRALSLSQASHAVAALPSGDRVAVSVAGHVEVYNMEGSLATRFIPGGKASRGLRALVFLTTSPQGHFVGSDWQQNSVVICDGLGQVVGEYKGPGLHGCQPGSVSVDKKGYIFLTLREVNKVVILDPKGSLLGDFLTAYHGLEKPRVTTMVDGRYLVVSLSNGTIHIFRVRSPDS
binding [3]: binds
